The assay in a line: qHTS Assay for Modulators of Lamin A Splicing. The note with it: HeLa LMNA splicing GFP/RFP minigene ratio, 48 h. In outline: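 Read-out is the ratio of GFP to DsRed2 object intensity, acquired by 488 nm laser-scanning cytometry on HeLa lamin A-EGFP minigene reporter cells. Compound incubation 48 hrs at 37 °C in Opti-MEM with 2% FBS; DMSO 0.5% final.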
Background: In qHTS, concentration-response curves come from the screen itself.

The mark [1] stands for this setting: measured here: RFP viability control channel.
[2] abbreviates: measured here: GFP splicing reporter channel.

This is one part of the list. The main result of the screen is listed elsewhere. These columns were measured beside it and carry no call. The list favours compounds with an active or inconclusive main result. The note in brackets gives the kind of curve behind each potency; many fits are weak.

As usually defined, the AC50 is the midpoint of the concentration-response curve, whichever way the signal moves.

As to `Cc1ccccc1Cn1nnc(-c2ccc(C(=O)O)cc2)n1`, under setting [1], the AC50 was 7.08 µM [falling, partial curve, poor fit].
On the same count and under the same terms, with `COc1ccc(CCNC(=O)c2cnn3ccccc23)c(OC)c1OC` the figure was 10 µM [rising, partial curve, poor fit].
Regarding `COc1ccc(C(=O)NCc2ccc3c(c2)CCN3C(=O)c2ccccc2)cc1`, the AC50 is 10 µM [falling, partial curve] under setting [2] and 6.31 µM [falling, partial curve] under setting [1].
For the compound `CCOc1cccc(OCCOCCOc2ccccc2C(C)=O)c1`, the AC50 runs as follows: under setting [2], 11.2 µM [rising, single point]; under setting [1], 14.1 µM [rising, single point].
On to `O=C(O)CCCC[C@@H]1CCSS1`, for which, under setting [2], the AC50 is 0.00501 µM [falling, full curve].
Same read-out and setting: with `COCCn1c(C)cc(C(=O)CN2C(=O)NC3(CCCCCCC3)C2=O)c1C` the figure was 35.5 µM [rising, single point].
Turning to `Cc1ccc(Cl)cc1N1CCN(C(=O)c2ccc(CS(=O)c3ccccc3)o2)CC1` (configuration not stated), the AC50 under setting [1] is 0.891 µM [rising, full curve].
For `COc1c(Cl)cc(Cl)cc1/C=C/C(=O)c1ccc(NC(=O)c2cccs2)cc1`, the AC50 reads like this: under setting [2], 35.5 µM [falling, single point]; under setting [1], 6.31 µM [falling, single point].
As for `Cc1ccc(NC(=O)CCC(=O)NNC(=S)Nc2ccccc2)c(C)c1`, under setting [1], the AC50 was 0.0398 µM [falling, full curve, poor fit].
Turning to `Cc1ccc(C(=O)Nc2c(-c3cccs3)c(=O)c3ccccc3n2C)cc1`, the AC50 under setting [1] was 11.2 µM [rising, partial curve].
Still for that read-out and setting: with `COc1ccc(NS(=O)(=O)c2ccc(-c3cnc(C4CC4)o3)cc2)cc1Cl` the figure was 0.158 µM [rising, full curve, poor fit]; with `O=C(/C=C/c1ccco1)Nc1nc(-c2ccccn2)cs1`, 28.2 µM [falling, partial curve].
In the case of `O=C(NC(c1ccccc1)c1ccccc1)c1cccc(S(=O)(=O)NCc2ccccc2)c1`, the AC50 by setting is: under setting [2], 31.6 µM [rising, single point]; under setting [1], 31.6 µM [rising, single point].
`Cc1cccc(C)c1NC(=O)c1ccc([N+](=O)[O-])s1`: the AC50 under setting [1] is 35.5 µM [rising, single point].
On to `Cc1ccc(C)c(N2CCN(C(=O)CCCCn3c(=O)[nH]c4ccccc4c3=O)CC2)c1`, for which the AC50 reads like this: under setting [2], 25.1 µM [rising, single point]; under setting [1], 15.8 µM [rising, partial curve].
As to `O=C(/C=C/c1ccccc1)c1ccccn1`, the AC50 was 35.5 µM [falling, single point] under setting [2] and 31.6 µM [falling, single point] under setting [1].
Take `O=C(Nc1ncccc1Cl)C(Sc1ccccc1)c1ccccc1` (configuration not stated): the AC50 is 14.1 µM [rising, partial curve, poor fit] under setting [2] and 11.2 µM [rising, partial curve, poor fit] under setting [1].
In the case of `COc1ccc(CN(C#N)c2nc(SC)nc(N(C)C)n2)cc1`, the AC50 under setting [1] was 22.4 µM [rising, single point].
`CC(=O)Oc1ccc(OC(C)=O)c(SCCCCCN2CCOCC2)c1`: the AC50 runs as follows: under setting [2], 15.8 µM [falling, single point]; under setting [1], 14.1 µM [falling, single point].
Regarding `COc1ccccc1CNc1ncnc2ccc(-c3ccccc3OC)cc12`, the AC50 reads like this: under setting [2], 11.2 µM [falling, partial curve]; under setting [1], 15.8 µM [falling, single point].
With `COc1ccccc1NC(C)C(=O)Nc1ccc(C(C)=O)cc1` (configuration not stated), the AC50 reads like this: under setting [2], 35.5 µM [rising, single point]; under setting [1], 35.5 µM [rising, single point].
Regarding `COc1ccc(C(=O)C2CCN(C(=O)c3ccc(C)cc3)CC2)cc1`, the AC50 under setting [1] was 11.2 µM [rising, partial curve].
`Cc1cc(=O)n2[nH]c(C)c(-c3ccc(Cl)cc3)c2n1`: the AC50 reads like this: under setting [2], 14.1 µM [rising, single point]; under setting [1], 25.1 µM [rising, single point].
As for `Cc1ccc(-n2ncc3c(N4CCCC4)ncnc32)c(C)c1`, the AC50 under setting [2] was 14.1 µM [rising, single point] and the concentration at half-maximal activity (AC50) under setting [1] is 22.4 µM [rising, single point].
As to `CC(C)C(C(=O)NCc1ccco1)N(C(=O)CNS(=O)(=O)c1ccccc1)c1ccccc1` (configuration not stated), the AC50 was 28.2 µM [rising, partial curve, poor fit] under setting [2] and 22.4 µM [rising, partial curve, poor fit] under setting [1].
For `O=C(Cn1cnc2cc([N+](=O)[O-])ccc2c1=O)NC1CCS(=O)(=O)C1` (configuration not stated), the AC50 under setting [2] was 2.82 µM [falling, partial curve].
Same read-out and setting: with `CCOC(=O)N1CCC(N2C(=O)c3ccccc3C2Nc2ccc(S(=O)(=O)N3CCCCC3)cc2)CC1` (configuration not stated) the figure was 6.31 µM [rising, single point].
Take `CCCCN1C(=O)C(O)(CC(=O)c2ccco2)c2cc(Br)ccc21` (configuration not stated): the AC50 under setting [2] is 14.1 µM [rising, single point] and the AC50 under setting [1] is 14.1 µM [rising, partial curve, poor fit].
Regarding `Cc1ccc(C(=O)N/C(=C\c2ccc(Br)cc2)c2nc(=S)[nH][nH]2)cc1`, the AC50 runs as follows: under setting [2], 35.5 µM [falling, single point]; under setting [1], 35.5 µM [falling, partial curve].
For `Cc1cccc(Nc2ccncc2S(=O)(=O)NC(=O)NC(C)C)c1`, the half-maximal activity concentration (AC50) under setting [2] is 5.62 µM [falling, partial curve, poor fit].
As to `COc1ccc(NS(=O)(=O)c2ccc3[nH]c(=O)ccc3c2)cc1OC`, the half-maximal activity concentration (AC50) is 15.8 µM [rising, partial curve, poor fit] under setting [2] and 20 µM [rising, partial curve] under setting [1].
As for `CC(C)c1c(O)nc(SCC(=O)Nc2ccc3c(c2)CCC3)[nH]c1=O`, the AC50 by setting is: under setting [2], 20 µM [rising, partial curve]; under setting [1], 35.5 µM [rising, single point].
On to `O=C(Cc1ccccc1)Nc1ccccc1Sc1ccccc1`, for which the AC50 is, setting by setting: under setting [2], 11.2 µM [rising, single point]; under setting [1], 25.1 µM [rising, single point].
Turning to `CCn1c(CSc2nc3ccccc3s2)nc2ccccc21`, under setting [1], the AC50 was 14.1 µM [rising, single point].

The values are drawn from PubChem BioAssay AID1487 (National Center for Advancing Translational Sciences (NCATS), 2009).
